Measured values reported in PubChem BioAssay AID330 (DTP/NCI, 2004).
The list does not hold the whole screen: it gathers tests that were run many times, whatever their T/C, doses with no T/C, and many T/C values between a quarter and a half above the control. Other doses and runs of a compound stand elsewhere. T/C is the treated group as % of the vehicle group. Some entries give survivors of the animals treated and no T/C: the source holds a T/C of zero for them, seemingly a mark for toxic or unscored doses. Some survivor counts are full or nearly so, which does not show that the dose was tolerated: the source hardly ever lists a survival T/C far under the control, and the zero likely stands for such cases as well. Survivors were counted at the toxicity check, usually on the fifth day, unless a day is given; later deaths do not show. Schedules are NCI's codes, read here as Q, the interval in days (D) or hours (H), X, the number of doses. For survival time, this PubChem deposit counts one and a half times the control or more as active, and values a quarter to a half above the control carry no call in these data; other NCI protocols may use other cut-offs. Counts like (3×) stand for listed records that agree. Some T/C values carry the count of animals alive at the toxicity check (mostly the fifth day); without a count, all were alive then. Some entries hold several experiments; the results are listed from low to high.

Test system: P388 leukemia ip, CD2F1 mice, survival T/C
Assay: NCI In Vivo Anticancer Drug Screen. Data for tumor model P388 Leukemia (intraperitoneal) in CD2F1 (CDF1) mice
Conditions: T/C endpoint: median survival time, higher T/C = longer survival
[1] = dose: 200.0 mg/kg/injection, schedule: Q01DX005 (ip), vehicle: saline with Tween-80
[2] = dose: 100.0 mg/kg/injection, schedule: Q01DX009 (ip), vehicle: saline
[3] = dose: 200.0 mg/kg/injection, schedule: Q01DX009 (ip), vehicle: saline
[4] = dose: 200.0 mg/kg/injection, schedule: Q04DX003 (ip), vehicle: saline with Tween-80
[5] = dose: 50.0 mg/kg/injection, schedule: Q01DX009 (ip), vehicle: Klucel (hydroxypropylcellulose) (HPC)
[6] = dose: 100.0 mg/kg/injection, schedule: Q01DX009 (ip), vehicle: Klucel (hydroxypropylcellulose) (HPC)
[7] = dose: 200.0 mg/kg/injection, schedule: Q01DX009 (ip), vehicle: Klucel (hydroxypropylcellulose) (HPC)
[8] = dose: 200.0 mg/kg/injection, schedule: Q01DX005 (ip), vehicle: saline
[9] = dose: 400.0 mg/kg/injection, schedule: Q04DX002 (ip), vehicle: saline with Tween-80
[10] = dose: 100.0 mg/kg/injection, schedule: Q01DX009 (ip), vehicle: saline with Tween-80
[11] = dose: 200.0 mg/kg/injection, schedule: Q01DX009 (ip), vehicle: saline with Tween-80
[12] = dose: 50.0 mg/kg/injection, schedule: Q01DX009 (ip), vehicle: saline

`COc1cc2c3c(c1OC)C=C[C@@H]1CCCN(CC2)[C@H]31` was tested, and the survivor count (dose: 60.0 mg/kg/injection, schedule: Q01DX005 (ip), vehicle: Klucel (hydroxypropylcellulose) (HPC)) was 2 of 6, the survivor count (dose: 120.0 mg/kg/injection, schedule: Q01DX005 (ip), vehicle: Klucel (hydroxypropylcellulose) (HPC)) was 0 of 6 and the survivor count (dose: 240.0 mg/kg/injection, schedule: Q01DX005 (ip), vehicle: Klucel (hydroxypropylcellulose) (HPC)) was 0 of 6.

For `CNC(=O)OCC1=C([Si](C)(C)C)C(=O)C(OC)=C(OC)C1=O`, the survivor count [1] was 1 of 6.

For `[Cl][Sn]1([c]2ccccc2)[O]CCNCC[O]1`, the T/C [2] was 140 % of control, the T/C [3] was 137 % of control and the T/C (dose: 200.0 mg/kg/injection, schedule: Q01DX009 (ip), vehicle: suspension in saline) was 126 % of control.

With `CC1(C)[C@@H]2CC[C@]3(C)[C@H]4CC[C@]5(C)[C@@H](O)CC[C@H]5[C@@H]4CC[C@]3(O2)[C@@H]1O` the survivor count [1] was 6 of 6.

With `CN=P1(NC)NP(=NC)(NC)NP(=NC)(NC)NP(=NC)(NC)N1.[Cl-].[Cl-].[Cl-].[Cl-].[Pt+2]` (configuration not stated) the survivor count [4] was 0 of 6.

With `Cc1nn(C(=O)c2cccnc2)c(-c2ccccc2)c1N=Nc1ccc(C(=O)O)cc1` the survivor count [1] was 6 of 6.

With `CC(O)CNCCNc1ccc(NCCNCC(C)O)c2c1C(=O)c1c(O)ccc(O)c1C2=O` (configuration not stated) the survivor count (dose: 16.0 mg/kg/injection, schedule: Q01DX009 (ip), vehicle: acid diluted with saline) was 6 of 6.

In the case of `OC(CNC1CCCCC1)c1ccccc1` (configuration not stated), the survivor count [5] is reported as 0 of 6, the survivor count [6] is reported as 0 of 6 and the survivor count [7] is reported as 0 of 6. The survivor count (dose: 400.0 mg/kg/injection, schedule: Q01DX009 (ip), vehicle: Klucel (hydroxypropylcellulose) (HPC)) was 0 of 6.

In the case of `Cc1cc(N=[N+]=[N-])c2ccc(Cl)cc2n1`, the survivor count (dose: 240.0 mg/kg/injection, schedule: Q01DX005 (ip), vehicle: saline with Tween-80) is reported as 3 of 6.

For `CCOC(Cn1cc([N+](=O)[O-])c(=O)[nH]c1=O)OCC`, the survivor count (dose: 100.0 mg/kg/injection, schedule: Q01DX005 (ip), vehicle: Klucel (hydroxypropylcellulose) (HPC)) was 3 of 6 and the survivor count (dose: 200.0 mg/kg/injection, schedule: Q01DX005 (ip), vehicle: Klucel (hydroxypropylcellulose) (HPC)) was 0 of 6.

With `CSCCCNCc1ccc([N+](=O)[O-])cc1` the survivor count [8] was 0 of 6.

In the case of `ClCC1OCCO1`, the survivor count [3] is reported as 4 of 6.

For `O=C1C=CC2(C=C1)CCN=C(c1cc3c(cc1Br)OCO3)O2`, the survivor count (dose: 200.0 mg/kg/injection, schedule: Q04DX002 (ip), vehicle: saline with Tween-80) was 1 of 6 and the survivor count [9] was 0 of 6.

In the case of `C=C(C)C(=O)OC1C/C(CO)=C\C(OC(C)=O)C/C(C)=C/C2OC(=O)C(=C)C21` (configuration not stated), the T/C (dose: 30.0 mg/kg/injection, schedule: Q01DX009 (ip), vehicle: saline + alcohol) is reported as 130 % of control.

`Cc1cc(C)c(OC2=C(c3c(C)cc(C)cc3C)C(=O)c3ccccc32)c(C)c1` was tested, and the survivor count (dose: 400.0 mg/kg/injection, schedule: Q01DX009 (ip), vehicle: saline with Tween-80) was 6 of 6.

`CC[P+](CC)(c1ccccc1)c1ccccc1` was tested, and the survivor count (dose: 50.0 mg/kg/injection, schedule: Q01DX005 (ip), vehicle: saline with Tween-80) was 0 of 6, the survivor count (dose: 100.0 mg/kg/injection, schedule: Q01DX005 (ip), vehicle: saline with Tween-80) was 0 of 6 and the survivor count [1] was 0 of 6.

`CC(Nc1ncnc2c1CCc1ccccc1-2)C(=O)O` (configuration not stated) was tested, and the survivor count [9] was 2 of 6.

With `COc1ccc(S(=O)(=O)N2OC2c2ccccc2)cc1` (configuration not stated) the survivor count [7] was 3 of 6.

`S=c1sc2cccnc2s1` was tested, and the survivor count [10] was 3 of 6 and the survivor count [11] was 0 of 6.

In the case of `O=[Se]([O][Sn]([O][Se](=O)c1ccccc1)([O][Se](=O)c1ccccc1)[O][Se](=O)c1ccccc1)c1ccccc1` (configuration not stated), the survivor count [10] is reported as 0 of 6 and the survivor count [11] is reported as 0 of 6.

With `C/C=C\C(C)=C/C(C)C(=O)CC(O)CC1CC(=O)NC(=O)C1` (configuration not stated) the survivor count (dose: 50.0 mg/kg/injection, schedule: Q01DX009 (ip), vehicle: DMSO) was 4 of 6, the survivor count (dose: 100.0 mg/kg/injection, schedule: Q01DX009 (ip), vehicle: DMSO) was 4 of 6 and the survivor count (dose: 200.0 mg/kg/injection, schedule: Q01DX009 (ip), vehicle: DMSO) was 0 of 6. The survivor count (dose: 400.0 mg/kg/injection, schedule: Q01DX009 (ip), vehicle: DMSO) was 0 of 6.

In the case of `O=C(O)c1ccc2c(c1Cl)C(=O)c1ccccc1C2=O`, the survivor count (dose: 200.0 mg/kg/injection, schedule: Q04DX003 (ip), vehicle: Klucel (hydroxypropylcellulose) (HPC)) is reported as 5 of 6.

In the case of `CCC(=O)OC1CC=NN2C(=O)C(NC(=O)c3nc4ccc(OC)cc4cc3O)COC(=O)C(C(C)(C)O)N(C)C(=O)CN(C)C(=O)CNC(=O)C3C(OC(C)=O)CC=NN3C(=O)C(NC(=O)c3nc4ccc(OC)cc4cc3O)COC(=O)C(C(C)(C)O)N(C)C(=O)CN(C)C(=O)CNC(=O)C12` (configuration not stated), the T/C (dose: 5.0 micrograms/kg/injection, schedule: Q01DX005 (ip), vehicle: DMSO) is reported as 126 % of control and the T/C (dose: 10.0 micrograms/kg/injection, schedule: Q01DX005 (ip), vehicle: DMSO) is reported as 138 % of control.

`CCOC(=O)c1cnc(NCCCCCCCCNc2ncc(C(=O)OCC)c(=O)[nH]2)[nH]c1=O` was tested, and the survivor count [12] was 6 of 6 and the survivor count [2] was 6 of 6.

With `c1cc2ccc3ccc(C4CO4)c4ccc(c1)c2c34` (configuration not stated) the survivor count [5] was 5 of 6, the survivor count [6] was 3 of 6 and the survivor count [7] was 1 of 6.

For `Cc1cc2nc3ccc(N=Nc4ccc(N(C)C)cc4)cc3n(-c3ccccc3)c-2cc1=N`, the T/C (dose: 0.78 mg/kg/injection, schedule: Q01DX009 (ip), vehicle: saline) was 132 % of control, the T/C (dose: 1.56 mg/kg/injection, schedule: Q01DX009 (ip), vehicle: saline) was 134 and 141 % of control and the survivor count (dose: 3.12 mg/kg/injection, schedule: Q01DX009 (ip), vehicle: saline) was 1 of 6. For the same compound, the survivor count (dose: 6.25 mg/kg/injection, schedule: Q01DX009 (ip), vehicle: saline) was 0 of 6, the survivor count (dose: 12.5 mg/kg/injection, schedule: Q01DX009 (ip), vehicle: saline) was 0 of 6 and the survivor count (dose: 25.0 mg/kg/injection, schedule: Q01DX009 (ip), vehicle: saline) was 0 of 6. The survivor count [12] was 0 of 6, the survivor count [2] was 0 of 6 and the survivor count [3] was 0 of 6.

For `[CH3][Bi]1[O]C(=O)c2ccccc2[S]1`, the T/C (dose: 50.0 mg/kg/injection, schedule: Q01DX005 (ip), vehicle: Klucel (hydroxypropylcellulose) (HPC), evaluated on day 20) was 97 [5 of 6 alive] and 102 % of control, the T/C (dose: 50.0 mg/kg/injection, schedule: Q01DX005 (ip), vehicle: Klucel (hydroxypropylcellulose) (HPC), evaluated on day 30) was 94 % of control and the survivor count (dose: 50.0 mg/kg/injection, schedule: Q01DX005 (ip), vehicle: Klucel (hydroxypropylcellulose) (HPC)) was 4 of 6. The T/C (dose: 100.0 mg/kg/injection, schedule: Q01DX005 (ip), vehicle: Klucel (hydroxypropylcellulose) (HPC), evaluated on day 20) was 118 and 119 % of control, the T/C (dose: 100.0 mg/kg/injection, schedule: Q01DX005 (ip), vehicle: Klucel (hydroxypropylcellulose) (HPC), evaluated on day 30) was 100 % of control (2×) and the T/C (dose: 200.0 mg/kg/injection, schedule: Q01DX005 (ip), vehicle: Klucel (hydroxypropylcellulose) (HPC), evaluated on day 20) was 108 [5 of 6 alive] and 121 % of control. For the same compound, the T/C (dose: 200.0 mg/kg/injection, schedule: Q01DX005 (ip), vehicle: Klucel (hydroxypropylcellulose) (HPC), evaluated on day 30) was 101 and 112 % of control.

For `CC1=CC(C)(C)N(C)C(N)=N1`, the survivor count (dose: 50.0 mg/kg/injection, schedule: Q01DX005 (ip), vehicle: saline) was 3 of 5, the survivor count (dose: 100.0 mg/kg/injection, schedule: Q01DX005 (ip), vehicle: saline) was 0 of 6 and the survivor count [8] was 0 of 6.

With `CCC1=C2C(=O)c3ccccc3C2=C(C)S(=O)(=O)O1` the survivor count [4] was 4 of 6.

With `O=C(O)c1cc2ccc(Cl)cc2[se]1` the survivor count [2] was 6 of 6.

With `O=C(c1cccnc1)C(CCc1ccccn1)c1ccccn1` (configuration not stated) the survivor count (dose: 400.0 mg/kg/injection, schedule: Q04DX003 (ip), vehicle: saline) was 4 of 6.
